From patent publication US7691890B2, “Anti-viral uses of leflunomide products” (priority 1998, dated 2010)
For at least one compound, name, drawing or mass did not settle the structure.

System: intracellular pyrimidine nucleotide (pyNTP) levels
Assay: Intracellular pyrimidine nucleotide quantitation by HPLC in CMV-infected HUVEC
Assay type: cell-based, human
Conditions: CMV VHL/E-infected HUVEC, 4 days, 200 μM A771726, 200 μM uridine

With O=c1ccn([C@@H]2O[C@H](CO)[C@@H](O)[C@H]2O)c(=O)[nH]1 [uridine] the “intracellular pyNTP levels” value was “increased pyNTP levels”.
